Assay [1] addresses human neuropilin-2 (human) (UniProt O60462). Nature of the assay: flow cytometry screening of hybridomas on cell lines expressing or not expressing neuropilin-2. For orientation: A flow cytometer gives signals particle by particle.
For assay [2] the target is unchanged. Nature of the assay: flow cytometry, 5 µg/ml antibody on P815-NRP-2 and HT29-NRP-2 cells versus P815 and HT29 cells.

Chains of the proteins cited; added tags and fusions are not shown. Residues count along the entry.
UniProt O60462, residues 21-931: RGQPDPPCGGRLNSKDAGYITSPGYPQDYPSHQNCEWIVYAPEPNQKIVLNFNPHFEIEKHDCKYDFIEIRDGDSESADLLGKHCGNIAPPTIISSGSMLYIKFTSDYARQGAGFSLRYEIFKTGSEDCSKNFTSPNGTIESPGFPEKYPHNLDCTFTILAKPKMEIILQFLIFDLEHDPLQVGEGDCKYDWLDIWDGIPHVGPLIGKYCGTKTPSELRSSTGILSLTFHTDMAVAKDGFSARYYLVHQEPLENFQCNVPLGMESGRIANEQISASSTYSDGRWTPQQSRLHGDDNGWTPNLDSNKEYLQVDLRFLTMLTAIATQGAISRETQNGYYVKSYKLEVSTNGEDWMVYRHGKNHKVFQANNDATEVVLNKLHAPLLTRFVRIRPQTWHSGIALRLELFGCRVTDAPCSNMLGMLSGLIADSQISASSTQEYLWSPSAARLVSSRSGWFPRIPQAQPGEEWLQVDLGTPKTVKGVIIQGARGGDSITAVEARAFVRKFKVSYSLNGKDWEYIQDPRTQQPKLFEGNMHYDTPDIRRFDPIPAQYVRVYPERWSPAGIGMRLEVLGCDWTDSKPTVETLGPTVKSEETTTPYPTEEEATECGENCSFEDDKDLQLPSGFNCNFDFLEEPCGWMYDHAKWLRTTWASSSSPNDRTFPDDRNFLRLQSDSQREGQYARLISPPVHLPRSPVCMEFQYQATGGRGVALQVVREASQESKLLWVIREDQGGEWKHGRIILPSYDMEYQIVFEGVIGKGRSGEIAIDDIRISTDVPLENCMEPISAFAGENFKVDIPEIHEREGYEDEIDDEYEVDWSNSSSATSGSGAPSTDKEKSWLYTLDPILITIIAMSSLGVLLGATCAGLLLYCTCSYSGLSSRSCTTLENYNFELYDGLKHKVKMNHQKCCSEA

Results are given in words; binding and its absence hold for the method and conditions named. Some binding calls cover weakened binding; strength is not graded here.

B1: ITAC-B2 anti-human neuropilin-2 monoclonal antibody (antibody, V domains shown)
VH: EVQLEESGGGLVKPGGSLKLSCAASGFTFSDYYMYWVRQTPEKRLEWVATISDGGSYTYYPDSIKGRFTISRDNARNNLYLQMSSLKSEDTAMYYCARGGPYRSWFAFWGQGTLVTVSA
VL: DIVITQTPLSLPVSLGDQASISCRSSQSIVYSNGNTYLEWYLQKPGQSPKLLIYKVSNRFSGVPDRFSGSGSGTDFTLKISRVEAEDLGVYYCFQGSHVPPTFGGGTKLEIK
With B1, the binding entry in assay [1] and in assay [2] was “binds” in each case.

Values taken from patent US20120027779A1.
